Results are given in words; binding and its absence hold for the method and conditions named. Some results given as binding are weak or reduced against the parent protein; the word gives no strength.
Target: neurotensin receptor 1 (NTR1) of PC3 cells (UniProt P30989)
Experiment: UV crosslinking on PC3 cells, immunoprecipitation with Ab-NTR1

- binding: binds
B1: ^125I-[4-azido-Phe^6]-NT (peptide)
peptide: ELYENFPRRPYIL
modifications: 4-azido-Phe at position 6; pGlu at position 1; 125I iodinated
notes: the residue at 6 is 4-azido-phenylalanine

Reference: patent US20090203048A1 (UNIVERSITY OF MASSACHUSETTS, published 2009)
